Data: patent US5180716A, “Cyclodextrin complexes for neuraxial administration of drugs” (The Regents of the University of California, priority 1990, dated 1993)

Legend:
[1] = rat, in vivo
[2] = in vivo; conditions: rat
[3] = in vivo; conditions: rat; remark: listed apart in the source

In the case of `CN1CC[C@]23c4c5ccc(O)c4O[C@H]2[C@@H](O)C=C[C@H]3[C@H]1C5.O=S(=O)(O)O` [Morphine, morphine sulfate], the “ordering of effects (AUC) by cyclodextrin concentration” value [1] was 0.02%, 20%, 0.002%, 2%, saline, the concentration at 5 min [2] was 0.0537 µg/mL and the concentration at 5 min [3] was 411000 µg/mL.
